Reference: PubChem BioAssay AID258 (DTP/NCI, 2004)
The list is a part of this screen's results and no random one: it gathers tests that were run many times, whatever their T/C, doses with no T/C, and many T/C values between a quarter and a half above the control. Other doses and runs of a compound stand elsewhere. T/C is the treated group as % of the vehicle group. Some doses have a count of surviving animals in place of a T/C: the source files T/C as zero there, which appears to mark a toxic dose or a test without result, not a measured value. Some survivor counts are full or nearly so, which does not show that the dose was tolerated: the source hardly ever lists a survival T/C far under the control, and the zero likely stands for such cases as well. Survivors were counted at the toxicity check, usually on the fifth day, unless a day is given; later deaths do not show. Schedules are NCI's codes, taken here to give the interval after Q, in days (D) or hours (H), and the number of doses after X. Some entries hold several experiments; the results are listed from low to high. Some molecules as drawn cover several salts, stereoisomers or complexes of the source; a dose is that of the sample tested. Some schedules carry Z or #; the key to these is not given. Where survival is the endpoint, this PubChem deposit counts one and a half times the control or more as active, and values a quarter to a half above the control carry no call in these data; other NCI protocols may use other cut-offs. Some T/C values are followed by the survivors on the day toxicity was checked, most often the fifth; where none is given, no animal had died by that day.

Tested on: CD2F1 mice, L1210 leukemia sc, survival T/C
Assay: NCI In Vivo Anticancer Drug Screen. Data for tumor model L1210 Leukemia (subcutaneous) in CD2F1 (CDF1) mice
Details: T/C endpoint: median survival time, higher T/C = longer survival
Summary of the method: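 Antitumor activity is scored in tumor-bearing mice by comparing survival or tumor size of treated animals against vehicle-treated controls, reported as T/C.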

[1] = dose: 8.0 mg/kg/injection, schedule: Q01DX009 (ip), vehicle: saline
[2] = dose: 64.0 mg/kg/injection, schedule: Q01DX009 (sc), vehicle: Klucel (hydroxypropylcellulose) (HPC)

With `O=C1c2ccccc2C(=O)c2c(NCCNCCO)ccc(NCCNCCO)c21` the T/C (dose: 4.0 mg/kg/injection, schedule: Q01DX009 (sc), vehicle: Klucel (hydroxypropylcellulose) (HPC)) was 131 % of control, the T/C (dose: 4.0 mg/kg/injection, schedule: Q01DX009 (sc), vehicle: water) was 135 % of control and the T/C [1] was 127 % of control. For the same compound, the T/C (dose: 8.0 mg/kg/injection, schedule: Q01DX009 (sc), vehicle: Klucel (hydroxypropylcellulose) (HPC)) was 136 % of control, the T/C (dose: 16.0 mg/kg/injection, schedule: Q01DX009 (ip), vehicle: Klucel (hydroxypropylcellulose) (HPC)) was 136 and 148 % of control and the T/C (dose: 32.0 mg/kg/injection, schedule: Q01DX009 (ip), vehicle: Klucel (hydroxypropylcellulose) (HPC)) was 129 % of control. The T/C (dose: 32.0 mg/kg/injection, schedule: Q01DX009 (sc), vehicle: Klucel (hydroxypropylcellulose) (HPC)) was 136 % of control, the T/C (dose: 64.0 mg/kg/injection, schedule: Q01DX009 (ip), vehicle: Klucel (hydroxypropylcellulose) (HPC)) was 125 % of control [8 of 10 alive] and the T/C (dose: 64.0 mg/kg/injection, schedule: Q01DX009 (ip), vehicle: water) was 125 % of control [9 of 10 alive]. For the same compound, the T/C [2] was 147 % of control, the survivor count [2] was 10 of 10 and the survivor count (dose: 64.0 mg/kg/injection, schedule: Q01DX009 (sc), vehicle: water) was 10 of 10. For the same compound, the survivor count (dose: 128.0 mg/kg/injection, schedule: Q01DX009 (ip), vehicle: saline) was 2 of 6, the survivor count (dose: 128.0 mg/kg/injection, schedule: Q01DX009 (sc), vehicle: Klucel (hydroxypropylcellulose) (HPC)) was 10 of 10 and 6 of 6 and the survivor count (dose: 128.0 mg/kg/injection, schedule: Q01DX009 (sc), vehicle: water) was 10 of 10. For the same compound, the survivor count (dose: 256.0 mg/kg/injection, schedule: Q01DX005 (oral), vehicle: water) was 6 of 10, the survivor count (dose: 512.0 mg/kg/injection, schedule: Q01DX005 (oral), vehicle: Klucel (hydroxypropylcellulose) (HPC)) was 10 of 10 and the survivor count (dose: 512.0 mg/kg/injection, schedule: Q01DX005 (oral), vehicle: water) was 9 of 10.
For `ONc1ncnc2nc[nH]c12`, the T/C (dose: 200.0 mg/kg/injection, schedule: Q01DX Z (sc), vehicle: steroid suspending solution) was 143 % of control.
With `NCCCNCCCCNC(=O)C(O)NC(=O)CCCCCCN=C(N)N` (configuration not stated) the T/C (dose: 0.78 mg/kg/injection, schedule: Q01DX009 (ip), vehicle: saline) was 143 % of control, the T/C (dose: 4.0 mg/kg/injection, schedule: Q03HX008 (ip), vehicle: saline) was 130 % of control and the T/C (dose: 8.0 mg/kg/injection, schedule: Q03HX008 (ip), vehicle: saline) was 129 and 138 % of control. The T/C (dose: 16.0 mg/kg/injection, schedule: Q03HX008 (ip), vehicle: saline) was 135 and 138 % of control, the survivor count (dose: 32.0 mg/kg/injection, schedule: Q03HX008 (ip), vehicle: saline) was 6 of 10 and 6 of 10 on day 7 and the survivor count (dose: 50.0 mg/kg/injection, schedule: Q01DX009 (ip), vehicle: saline) was 3 of 6. For the same compound, the survivor count (dose: 64.0 mg/kg/injection, schedule: Q01DX001 (ip), vehicle: saline) was 0 of 10 and 1 of 10 on day 7 and the survivor count (dose: 64.0 mg/kg/injection, schedule: Q03HX008 (ip), vehicle: saline) was 0 of 10 and 0 of 10 on day 7.
For `Oc1cc(CN(CCCl)CCCl)c(O)cc1CN(CCCl)CCCl`, the survivor count (dose: 300.0 mg/kg/injection, schedule: Q01DX Z (sc), vehicle: methylcellulose (MC)) was 1 of 10 and the survivor count (dose: 500.0 mg/kg/injection, schedule: Q01DX Z (sc), vehicle: methylcellulose (MC)) was 0 of 10.
For `O=S1(=O)CS(=O)(=O)OCCO1`, the T/C (dose: 6.25 mg/kg/injection, schedule: Q01DX009 (ip), vehicle: Klucel (hydroxypropylcellulose) (HPC)) was 131 % of control, the T/C (dose: 12.5 mg/kg/injection, schedule: Q01DX009 (ip), vehicle: Klucel (hydroxypropylcellulose) (HPC)) was 147 % of control and the survivor count (dose: 100.0 mg/kg/injection, schedule: Q01DX009 (ip), vehicle: Klucel (hydroxypropylcellulose) (HPC)) was 0 of 6.
`NS(=O)(=O)OCCCCCCCOS(N)(=O)=O` was tested, and the survivor count (dose: 18.0 mg/kg/injection, schedule: Q01DX009 (ip), vehicle: saline with Tween-80) was 6 of 6 and the T/C (dose: 50.0 mg/kg/injection, schedule: Q01DX009 (ip), vehicle: saline with Tween-80) was 143 % of control.
With `COc1cccc2c1C(=O)c1c(O)c3c(c(O)c1C2=O)C[C@@](O)(C(=O)CO)C[C@@H]3OC1CC(N)C(O)C(C)O1` (some centres not stated) the survivor count (dose: 0.25 mg/kg/injection, schedule: Q01DX009 (sc), vehicle: saline) was 5 of 10, the survivor count (dose: 0.5 mg/kg/injection, schedule: Q01DX009 (sc), vehicle: saline) was 4 of 10 and the survivor count (dose: 1.0 mg/kg/injection, schedule: Q01DX009 (sc), vehicle: saline) was 4 of 10. For the same compound, the survivor count (dose: 2.0 mg/kg/injection, schedule: Q01DX009 (sc), vehicle: saline) was 6 of 10, the T/C (dose: 3.0 mg/kg/injection, schedule: Q01DX009 (sc), vehicle: saline) was 126 % of control and the T/C (dose: 4.0 mg/kg/injection, schedule: Q01DX009 (sc), vehicle: saline, evaluated on day 30) was 128 [9 of 10 alive] and 139 % of control. For the same compound, the T/C (dose: 4.0 mg/kg/injection, schedule: Q01DX009 (sc), vehicle: saline, evaluated on day 45) was 120 % of control, the survivor count (dose: 4.0 mg/kg/injection, schedule: Q01DX009 (sc), vehicle: saline) was 6 of 10 and the T/C (dose: 6.0 mg/kg/injection, schedule: Q01DX009 (sc), vehicle: saline) was 125 % of control. The survivor count [1] was 8 of 10 and 10 of 10.
For `CC(CN1CC(=O)NC(=O)C1)N1CC(=O)NC(=O)C1` (configuration not stated), the T/C (dose: 3.75 mg/kg/injection, schedule: Q01DX009 (sc), vehicle: saline with Tween-80) was 126 % of control, the T/C (dose: 5.0 mg/kg/injection, schedule: Q01DX009 (ip), vehicle: saline with Tween-80) was 126 % of control and the T/C (dose: 7.5 mg/kg/injection, schedule: Q01DX009 (sc), vehicle: saline with Tween-80) was 137 % of control. The T/C (dose: 10.0 mg/kg/injection, schedule: Q01DX009 (ip), vehicle: saline with Tween-80) was 129 % of control, the T/C (dose: 15.0 mg/kg/injection, schedule: Q01DX009 (sc), vehicle: saline with Tween-80) was 149 % of control and the T/C (dose: 20.0 mg/kg/injection, schedule: Q01DX009 (ip), vehicle: saline with Tween-80) was 142 % of control. For the same compound, the T/C (dose: 30.0 mg/kg/injection, schedule: Q01DX009 (sc), vehicle: saline with Tween-80, evaluated on day 30) was 163 and 196 % of control, the T/C (dose: 30.0 mg/kg/injection, schedule: Q01DX009 (sc), vehicle: saline with Tween-80, evaluated on day 45) was 161 and 186 % of control and the T/C (dose: 30.0 mg/kg/injection, schedule: Q01DX009 (sc), vehicle: saline) was 135 % of control. The T/C (dose: 40.0 mg/kg/injection, schedule: Q01DX009 (ip), vehicle: saline with Tween-80) was 143 % of control, the T/C (dose: 40.0 mg/kg/injection, schedule: Q01DX009 (sc), vehicle: saline with Tween-80) was 138 % of control and the T/C (dose: 60.0 mg/kg/injection, schedule: Q01DX009 (ip), vehicle: saline with Tween-80) was 132 % of control. For the same compound, the T/C (dose: 60.0 mg/kg/injection, schedule: Q01DX009 (sc), vehicle: saline with Tween-80, evaluated on day 30) was 134 % of control, the T/C (dose: 60.0 mg/kg/injection, schedule: Q01DX009 (sc), vehicle: saline with Tween-80, evaluated on day 45) was 142 % of control and the T/C (dose: 60.0 mg/kg/injection, schedule: Q01DX009 (sc), vehicle: saline) was 146 % of control. For the same compound, the T/C (dose: 80.0 mg/kg/injection, schedule: Q01DX009 (sc), vehicle: saline with Tween-80) was 143 % of control, the T/C (dose: 180.0 mg/kg/injection, schedule: Q04DX003 (sc), vehicle: Klucel (hydroxypropylcellulose) (HPC)) was 125 % of control and the T/C (dose: 240.0 mg/kg/injection, schedule: Q01DX009 (sc), vehicle: saline with Tween-80) was 137 % of control. For the same compound, the T/C (dose: 240.0 mg/kg/injection, schedule: Q01DX009 (sc), vehicle: saline) was 127 % of control, the T/C (dose: 300.0 mg/kg/injection, schedule: Q04DX003 (sc), vehicle: Klucel (hydroxypropylcellulose) (HPC)) was 144 % of control and the T/C (dose: 360.0 mg/kg/injection, schedule: Q01DX009 (sc), vehicle: saline with Tween-80) was 129 % of control. For the same compound, the T/C (dose: 500.0 mg/kg/injection, schedule: Q04DX003 (sc), vehicle: Klucel (hydroxypropylcellulose) (HPC), evaluated on day 7) was 142 % of control and the T/C (dose: 500.0 mg/kg/injection, schedule: Q04DX003 (sc), vehicle: Klucel (hydroxypropylcellulose) (HPC), evaluated on day 21) was 138 % of control.
